Measurements reported in PubChem BioAssay AID1224830 (NIAID, 2016).
The deposit covers about 18,000 reagents; this is a part drawn at random. About 2,900 of all reagents (16%) count as active. 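Calls are made per well; low scores hint the gene aids the LPS response, high scores that it dampens it.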 Repeated entries: four replicate wells of each siRNA pool.

Screen: 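Genes whose knock-down alters the TNF-alpha reporter response to LPS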 (primary screen)
System: human THP-1 monocytic leukaemia cells, TNF dual-luciferase reporter clone, PMA-differentiated to macrophage-like cells
Reagents: siRNA pool against human genes, 50 nM
Timing: LPS for 4 h, given about 3 days after siRNA transfection
Challenge: bacterial LPS (TLR4 ligand), 10 ng/ml
Detection: 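TNF firefly reporter luminescence divided by renilla, normalised to the plate median, then turned into a robust z-score for each replicate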
Direction: TNF reporter robust z-score: higher = stronger TNF reporter response to LPS
Rule for the call: 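a well is active when its z-score exceeds 2.8 or falls below -1.5; control wells carry no call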

gene	TNF reporter robust z-score	Outcome
LAS1L (LAS1 like ribosome biogenesis factor)	0.17	inactive
LAS1L (LAS1 like ribosome biogenesis factor)	-0.22	inactive
LAS1L (LAS1 like ribosome biogenesis factor)	-0.09	inactive
LAS1L (LAS1 like ribosome biogenesis factor)	1.63	inactive
ZNF638 (zinc finger protein 638)	-0.02	inactive
ZNF638 (zinc finger protein 638)	0.08	inactive
ZNF638 (zinc finger protein 638)	-0.84	inactive
ZNF638 (zinc finger protein 638)	0.51	inactive
HPN (hepsin)	0.49	inactive
HPN (hepsin)	1.69	inactive
HPN (hepsin)	1.81	inactive
HPN (hepsin)	1.18	inactive
IL34 (interleukin 34)	0.26	inactive
IL34 (interleukin 34)	-0.38	inactive
IL34 (interleukin 34)	-0.27	inactive
IL34 (interleukin 34)	0.22	inactive
TARS1 (threonyl-tRNA synthetase 1)	2.52	inactive
TARS1 (threonyl-tRNA synthetase 1)	2.65	inactive
TARS1 (threonyl-tRNA synthetase 1)	2.06	inactive
TARS1 (threonyl-tRNA synthetase 1)	2.44	inactive
CDCP2 (CUB domain containing protein 2)	-0.97	inactive
CDCP2 (CUB domain containing protein 2)	-0.85	inactive
CDCP2 (CUB domain containing protein 2)	-0.14	inactive
CDCP2 (CUB domain containing protein 2)	-0.61	inactive
TMED5 (transmembrane p24 trafficking protein 5)	-0.44	inactive
TMED5 (transmembrane p24 trafficking protein 5)	-0.7	inactive
TMED5 (transmembrane p24 trafficking protein 5)	0.06	inactive
TMED5 (transmembrane p24 trafficking protein 5)	-0.17	inactive
ZNF382 (zinc finger protein 382)	0.08	inactive
ZNF382 (zinc finger protein 382)	-0.41	inactive
ZNF382 (zinc finger protein 382)	-0.74	inactive
ZNF382 (zinc finger protein 382)	-0.89	inactive

Reformatted: results already given.
{"gene":"LAS1L (LAS1 like ribosome biogenesis factor)","TNF reporter robust z-score":-0.22,"Outcome":"inactive"}
{"gene":"LAS1L (LAS1 like ribosome biogenesis factor)","TNF reporter robust z-score":-0.09,"Outcome":"inactive"}
{"gene":"LAS1L (LAS1 like ribosome biogenesis factor)","TNF reporter robust z-score":1.63,"Outcome":"inactive"}
{"gene":"ZNF638 (zinc finger protein 638)","TNF reporter robust z-score":-0.02,"Outcome":"inactive"}
{"gene":"ZNF638 (zinc finger protein 638)","TNF reporter robust z-score":0.08,"Outcome":"inactive"}

The results go on:
gene	TNF reporter robust z-score	Outcome
TBC1D22A (TBC1 domain family member 22A)	-0.32	inactive
TBC1D22A (TBC1 domain family member 22A)	-0.92	inactive
TBC1D22A (TBC1 domain family member 22A)	-0.8	inactive
TBC1D22A (TBC1 domain family member 22A)	-0.33	inactive
BMP4 (bone morphogenetic protein 4)	-0.23	inactive
BMP4 (bone morphogenetic protein 4)	-0.47	inactive
BMP4 (bone morphogenetic protein 4)	0.2	inactive
BMP4 (bone morphogenetic protein 4)	0.07	inactive
ZNF493 (zinc finger protein 493)	0.98	inactive
ZNF493 (zinc finger protein 493)	-0.62	inactive
ZNF493 (zinc finger protein 493)	-1.19	inactive
ZNF493 (zinc finger protein 493)	0.12	inactive
FOXR1 (forkhead box R1)	-0.76	inactive
FOXR1 (forkhead box R1)	-0.09	inactive
FOXR1 (forkhead box R1)	-0.23	inactive
FOXR1 (forkhead box R1)	0.09	inactive
